Data published in US10653715B2, “Methods and compositions for extending lifespan” (priority 2016, dated 2020).
Some of these results come from one statement about several compounds together.

System: B6C3F1/J mice
Assay: Large-scale lifespan screen of compounds in long-lived B6C3F1 hybrid mice
Format: in vivo, mouse
Conditions: compounds listed as shown to provide 10% or greater effect
From the text: The majority of compounds included drugs currently used in medicine and drug-like molecules, with wide range of targets that span the entire pharmacological space.
The compounds were clustered into 62 drug classes based on their mechanism of action or cellular target. Screening a wide range of known compounds could potentially resolve two challenges. First, to analyze how distinct drug classes with common mechanisms of action affect aging in mammals. Second, to determine with no bias or predispositions which of the current pharmacological drugs can extend lifespan.
In this study, the inventors used a strain of long-lived B6C3F1 hybrid mice (C57BL/6J♀×C3H/HeJ♂) with well-characterized aging dynamics (Lipman 1999, Turturro, 1999). […] Each treatment group included 15 female mice per compound, while 335 females were used as controls. Three additional control groups included 60 female mice on dietary restriction (60% ad libitum), 60 female mice on a purified diet, and 60 male mice as gender control. Each compound treatment and diet intervention were administered to mice starting at 5 months of age, and continued throughout their lifespan. The primary endpoint was mouse mortality, from which we calculated mean lifespan, maximal lifespan, and the onset of morbidity for each experimental group. […]

Compound: O=C(O)CC(O)(CC(=O)O)C(=O)O [Citric Acid]
- effect (lifespan) shown to be provided: ≥ 10%
